# Results from patent US20230372309A1, “ALPHA-2 ADRENERGIC RECEPTOR ANTAGONIST” (Kyoto University, priority 2020, published 2023).
# Some entries share one result that the patent states for a list of compounds.
# How the values were obtained:
# a2 adrenergic receptor = experiment: TGFα shedding assay, overall statement on FIG. 1; type: cell-based; settings: inhibition of a2A, a2B, a2C signal transduction in response to noradrenaline stimulation
# [1] = tested on: inflammatory pain model mouse induced by complete Freund's adjuvant (CFA); experiment: Pain reduction, CFA-induced inflammatory pain model mice, mechanical allodynia; type: in vivo; settings: compound 3; intrathecal, three days after CFA; up to three hours after administration; male C57BL/6J mice
# [2] = tested on: inflammatory pain model mice induced by carrageenan; experiment: Pain reduction, carrageenan-induced inflammatory pain model mice, mechanical allodynia; type: in vivo, mouse; settings: compounds 1 and 2; intrathecal, six hours after carrageenan; determined one hour after administration; male C57BL/6J mice
smiles,measurement,setting,value
CCN1/C(=C/C(C)=O)Sc2ccc(OC)cc21 [Compound 2],function as a2 adrenergic receptor antagonists (FIG. 1),a2 adrenergic receptor,can function as a2 adrenergic receptor antagonists
same,"pain reduction (mechanical allodynia), CFA model",[1],significantly reduced pain
same,"pain reduction (mechanical allodynia), carrageenan model",[2],significantly reduced pain
